Assay results from PubChem BioAssay AID540303 (National Center for Advancing Translational Sciences (NCATS), 2011).
About 1,000 (0.3%) of roughly 330,000 compounds were called active. Inconclusive results, whose numbers are uncertain, are shown with a selection of clear calls. Calls follow the shape of the dose curve; as a rule, active = well fitted inhibition curve with a large enough effect; inconclusive = small, poorly fitted or top-dose-only effect; inactive = no such curve, though single readings can be large or run the other way; tested in mouse RAW 264.7 cells. Potencies beside an inconclusive call are fits to weak or partial responses and may not hold up.

assay: qHTS for Inhibitors of Cell Surface uPA Generation; conditions: cell surface uPA generation assay; series mostly up to 38.3 µM; activity change, negative = inhibition: at the top concentration; also: nearly all actives have a fitted effect of over 55% in size
In short: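 RAW 264.7 cells (4000/well) were plated overnight at 37 C and then given compounds in a 1:5 series (up to 38.3 uM final) plus reagent for 24 h. Intracellular ATP was measured by ATP-Lite luminescence and stays elevated when uPA-dependent LF entry is blocked.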
% is scaled to controls: 0 for no effect and ±100 for the full control effect; potency is read from the fitted curve at half-maximal effect.

Compound	Potency	activity change, negative = inhibition
Cn1nnnc1Sc1ncnc2scc(-c3cc4ccccc4o3)c12	inconclusive: 7.08 µM [inhibitor, partial curve, poor fit]	
COc1cc(CNCc2ccccn2)ccc1OCc1ccc(Cl)cc1Cl		inactive: -8.51%
Nc1nn(-c2ccccc2)c(N)c1N=Nc1cccc(F)c1	active: 1.41 µM	
Cc1ccc2c(c1)N(C(=O)CCC(=O)NCCN1CCOCC1)CCO2	inconclusive: 12.6 µM [inhibitor, single point]	
COc1cccc(/C=C2\SC(=S)N(C(C)C(=O)NC3C=CS(=O)(=O)C3)C2=O)c1 (centres undefined)	inconclusive: 2.82 µM [inhibitor, full curve, poor fit]	
CC[C@H](C)[C@H]1O[C@]2(CC[C@@H]1C)C[C@@H]1C[C@@H](CC=C(C)[C@@H](O[C@H]3C[C@H](OC)[C@@H](O[C@H]4C[C@H](OC)[C@@H](O)[C@H](C)O4)[C@H](C)O3)[C@@H](C)C=CC=C3CO[C@@H]4[C@H](O)C(C)=C[C@@H](C(=O)O1)[C@]34O)O2	active: 2.51 µM	
Cc1cc(N2CCN(S(=O)(=O)c3ccc(Cl)cc3)CC2)c2ccccc2n1	inconclusive: 6.31 µM [inhibitor, partial curve, poor fit]	
COc1ccc(CN(C(=O)c2cc3ccccc3oc2=O)C2CCS(=O)(=O)C2)cc1OC (centres undefined)		inactive: 0.0037%
COC(=O)c1ccc(-n2c(C)cc(C(=O)CSc3cccc[n+]3[O-])c2C)cc1	inconclusive: 6.31 µM [inhibitor, partial curve, poor fit]	
Cn1cccc1/C=N/N1CCN(c2ccccc2)CC1		inactive: 0.607%
CCOC(=O)C1CN(S(=O)(=O)c2cccs2)c2ccc(CC(=O)OC)cc2O1 (centres undefined)		inactive: -0.503%
c1ccc(CCCNCCCn2cnc3c(OCc4ccccc4)ncnc32)cc1	inconclusive: 12.6 µM [inhibitor, single point]	
Cc1ccc(Cl)cc1N1CCN(C(=O)c2noc(C)c2[N+](=O)[O-])CC1	inconclusive: 3.16 µM [inhibitor, partial curve]	
O=C(/C=C/c1ccc([N+](=O)[O-])cc1)Nc1ncc([N+](=O)[O-])s1	inconclusive: 11.2 µM [inhibitor, partial curve, poor fit]	
Fc1ccc(-n2nnc(-c3cccnc3Cl)n2)cc1	inconclusive: 10 µM [inhibitor, single point]	
COc1ccc(/C=C/C(=O)Nc2ccc(C)c(S(=O)(=O)N3CCOCC3)c2)cc1	inconclusive: 7.08 µM [inhibitor, single point]	
CCOC(=O)Nc1ccc2nc(N3CCCCCC3)sc2c1	inconclusive: 2 µM [inhibitor, full curve, poor fit]	
COC(=O)c1ccccc1NC(=O)c1ccc2c(c1)CC(C)O2 (centres undefined)		inactive: 4.28%
CCCNC(=O)c1ccccc1NC(=O)c1ccc2c(c1)NC(=O)C(C)S2 (centres undefined)	inconclusive: 8.91 µM [inhibitor, partial curve, poor fit]	
Cc1ccc(-n2ncc(C(=O)Nc3cc(Cl)cc(Cl)c3)c2C2CCNCC2)cc1C	active: 11.2 µM	
Cc1cc(/C=N/NC(N)=S)c(C)n1-c1ccc(Br)cc1		inactive: -7.49%
O=C(CSc1nnc(-c2ccccc2)o1)Nc1ccccc1F	inconclusive: 10 µM [inhibitor, partial curve, poor fit]	

A second format for 2 compounds above:

| Compound | Potency | activity change, negative = inhibition |
| --- | --- | --- |
| Cn1cccc1/C=N/N1CCN(c2ccccc2)CC1 |  | inactive: 0.607% |
| CCOC(=O)C1CN(S(=O)(=O)c2cccs2)c2ccc(CC(=O)OC)cc2O1 (centres undefined) |  | inactive: -0.503% |

(further entries)

Compound	Potency	activity change, negative = inhibition
Oc1ccc(C23CC4CC(CC(C4)C2)C3)cc1O	inconclusive: 12.6 µM [inhibitor, single point]	
CCc1ccc(CCC(=O)Nc2ccc(Cl)cc2)o1	inconclusive: 7.94 µM [inhibitor, partial curve, poor fit]	
CCOc1ccc(N(C)C(=O)CCc2nnc3ccc(N4CCOCC4)nn23)cc1		inactive: 0.955%
CN1CCN(c2ccccc2/C=C2/C(=O)Nc3ccccc32)CC1	inconclusive: 12.6 µM [inhibitor, single point]	
O=C(Nc1nc2ccccc2s1)C1=NN(c2ccccc2)C(=O)CC1	inconclusive: 0.891 µM [inhibitor, full curve, poor fit]	
Cc1ccc(NC(=O)c2cccc(S(=O)(=O)N3CCCc4ccccc43)c2)nc1	inconclusive: 31.6 µM [inhibitor, partial curve, poor fit]	
COC(=O)C1=C(C)NC(C)=C(C(=O)OC)C1c1ccc(C)o1		inactive: -1.49%
COc1cc(O)cc2occ(-c3ccc(O)cc3)c(=O)c12	inconclusive: 11.2 µM [inhibitor, single point]	
CCCCN(c1nc2ccccc2nc1Cl)S(=O)(=O)c1ccc(C)cc1		inactive: -16.5%
COc1ccc(C2=CC(c3ccc(OC)c(OC)c3)NC(=S)N2)cc1 (centres undefined)		inactive: 3.95%
Clc1ccccc1C(c1ccccc1)(c1ccccc1)n1ccnc1	inconclusive: 12.6 µM [inhibitor, single point]	
Cc1cccc(C)c1OCc1cc(C(=O)N2CCN3CCCC3C2)no1 (centres undefined)	inconclusive: 0.0158 µM [inhibitor, full curve, poor fit]	
CN(C)CCN(C(=O)c1ccco1)c1nc2cc3c(cc2s1)OCCO3	inconclusive: 28.2 µM [inhibitor, single point]	
COc1ccc(NCC(=O)Nc2cccc(S(=O)(=O)N3CCCC3)c2)cc1Cl	inconclusive: 4.47 µM [inhibitor, partial curve, poor fit]	
COc1cc(CC(=O)Nc2cccc(S(=O)(=O)N(C)c3ccccc3)c2)cc(OC)c1OC	inconclusive: 12.6 µM [inhibitor, single point]	
CC(NC(=O)c1ccc(Br)s1)c1ccncc1 (centres undefined)		inactive: -9.32%
O=C(N[C@H]1/C=C\[C@@H](O)CCCC1)OCc1ccccc1	inconclusive: 10 µM [inhibitor, single point]	
O=[N+]([O-])c1cc(C(F)(F)F)ccc1NCCNC(=S)Nc1ccc(Cl)cc1	inconclusive: 31.6 µM [inhibitor, single point]	
O=S(=O)(c1cc(F)ccc1F)N1CCN(c2ncnc3ccccc23)CC1	inconclusive: 1.26 µM [inhibitor, full curve, poor fit]	
COc1ccc(C2=NN(C(=O)c3cccs3)C(c3ccc(OC)cc3)C2)cc1 (centres undefined)		inactive: -6.74%
Cc1ccccc1NC(=O)COc1ccccc1C	inconclusive: 0.02 µM [inhibitor, full curve, poor fit]	
CCC(C)Nc1nc(-c2ccccn2)nc2ccccc12 (centres undefined)	inconclusive: 7.94 µM [inhibitor, single point]	

Entries above that contain bromine:
Compound	Potency	activity change, negative = inhibition
Cc1cc(/C=N/NC(N)=S)c(C)n1-c1ccc(Br)cc1		inactive: -7.49%
CC(NC(=O)c1ccc(Br)s1)c1ccncc1 (centres undefined)		inactive: -9.32%

(list continues)

Compound	Potency	activity change, negative = inhibition
C=C1CCN([C@@H](C)C(=O)OCc2ccc(C)cc2)S(=O)(=O)c2ccccc21	inconclusive: 28.2 µM [inhibitor, single point]	
CNC(=O)CSc1nc2[nH]ncc2c(=O)[nH]1	inconclusive: 11.2 µM [inhibitor, single point]	
O=C(NCc1ccccn1)c1cc(-c2ccc(Cl)cc2)nc2ccccc12	inconclusive: 11.2 µM [inhibitor, partial curve, poor fit]	
CCCCCCSc1ccc([C@H]2N[C@@](Cc3ccccc3)(C(=O)OC)[C@H]3C(=O)N(C)C(=O)[C@@H]23)cc1OC	inconclusive: 3.98 µM [inhibitor, partial curve]	
Cc1ccc(N(C)S(=O)(=O)c2cccc(C(=O)Nc3ccc(C)cn3)c2)cc1		inactive: -5.73%
C=CCOc1ccc(Br)cc1CNCCO		inactive: 3.23%
CCOc1ccc(NC(=O)C2CCN(S(=O)(=O)c3ccc4c(c3)NC(=O)C(C)S4)CC2)cc1 (centres undefined)	inconclusive: 28.2 µM [inhibitor, single point]	
CCc1ccc(Nc2nnc(SCC(=O)NCCN3C(=O)CSC3=O)s2)cc1	inconclusive: 10 µM [inhibitor, partial curve, poor fit]	
O=C1c2cnc3nc(SCc4ccccc4)nn3c2CC2c3ccccc3CCN12 (centres undefined)		inactive: 0.903%
COc1ccc(-c2noc(-c3cccc(OC)c3OC)n2)cc1OC	inconclusive: 11.2 µM [inhibitor, partial curve, poor fit]	
O=C(Cc1ccccc1)Nc1ccc(N2CCCCC2)cc1	inconclusive: 4.47 µM [inhibitor, partial curve]	
COc1ccc(C(=O)NCc2ccccc2C)cc1S(=O)(=O)NC1CCCC1	inconclusive: 1.26 µM [inhibitor, full curve, poor fit]	
COC(=O)c1c(CCl)noc1C(=O)NC(C)C	active: 10 µM	
O=C(COC(=O)c1ccccc1C(=O)c1ccc(Cl)cc1)NC(c1ccccc1)c1ccccc1	inconclusive: 12.6 µM [inhibitor, single point]	
COCCN(C(=O)CCC(=O)Nc1cc(C)on1)C(C(=O)NC1CCCC1)c1ccc(C)cc1 (centres undefined)	inconclusive: 2.82 µM [inhibitor, single point]	
COc1ccc(S(=O)(=O)N(C)C[C@H]2Oc3ccc(NS(=O)(=O)c4ccc(F)cc4)cc3C(=O)N([C@H](C)CO)C[C@@H]2C)cc1	inconclusive: 12.6 µM [inhibitor, single point]	
Cc1ccc(SCc2nnc(NC(=O)c3ccccc3)s2)cc1		inactive: 4.44%
COc1ccc(OC)c(NC(=O)CN2C(=O)C(C)N(c3ccc(C)cc3)C2=O)c1 (centres undefined)	inconclusive: 0.447 µM [inhibitor, full curve, poor fit]	
CCCCNc1c(-c2ccc(OC)c(SC3CCCCC3)c2)nc2ccc(C)cn12	inconclusive: 5.62 µM [inhibitor, partial curve, poor fit]	
CCOC(=O)C(=N/O)/C(C)=N/NC(=O)C(=O)Nc1ccc(Cl)cc1	inconclusive: 10 µM [inhibitor, partial curve, poor fit]	
